Source: article PMC10449909
Results are given in words; binding and its absence hold for the method and conditions named. For some assays here: Binding seen in cells or lysates may run through a third protein. Some binding calls cover weakened binding; strength is not graded here.

T1: receptor-interacting protein kinase 1 (RIPK1), mouse (mouse (endogenous in L929 and MDF)), Q60855
T1 chain: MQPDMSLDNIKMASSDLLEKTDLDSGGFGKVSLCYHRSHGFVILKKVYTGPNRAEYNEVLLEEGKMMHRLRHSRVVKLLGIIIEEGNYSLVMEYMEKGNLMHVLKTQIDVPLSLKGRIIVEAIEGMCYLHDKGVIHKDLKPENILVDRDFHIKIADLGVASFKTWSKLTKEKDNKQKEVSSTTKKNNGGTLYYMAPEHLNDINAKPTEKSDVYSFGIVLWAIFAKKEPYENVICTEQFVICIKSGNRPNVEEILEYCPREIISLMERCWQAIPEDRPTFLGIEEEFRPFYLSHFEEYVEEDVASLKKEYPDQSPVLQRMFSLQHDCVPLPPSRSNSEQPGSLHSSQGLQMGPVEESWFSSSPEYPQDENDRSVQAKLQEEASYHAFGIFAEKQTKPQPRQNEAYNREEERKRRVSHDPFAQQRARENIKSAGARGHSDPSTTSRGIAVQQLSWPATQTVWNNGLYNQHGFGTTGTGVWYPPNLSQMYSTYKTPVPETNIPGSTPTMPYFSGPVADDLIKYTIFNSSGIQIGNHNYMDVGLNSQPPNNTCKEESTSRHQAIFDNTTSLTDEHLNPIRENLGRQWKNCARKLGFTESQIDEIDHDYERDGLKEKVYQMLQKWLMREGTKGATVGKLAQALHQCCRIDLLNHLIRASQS

B1: receptor-interacting protein kinase 3 (RIPK3), mouse, Q9QZL0 1-486 (protein)
chain: MSSVKLWPTGASAVPLVSREELKKLEFVGKGGFGVVFRAHHRTWNHDVAVKIVNSKKISWEVKAMVNLRNENVLLLLGVTEDLQWDFVSGQALVTRFMENGSLAGLLQPECPRPWPLLCRLLQEVVLGMCYLHSLNPPLLHRDLKPSNILLDPELHAKLADFGLSTFQGGSQSGSGSGSGSRDSGGTLAYLDPELLFDVNLKASKASDVYSFGILVWAVLAGREAELVDKTSLIRETVCDRQSRPPLTELPPGSPETPGLEKLKELMIHCWGSQSENRPSFQDCEPKTNEVYNLVKDKVDAAVSEVKHYLSQHRSSGRNLSAREPSQRGTEMDCPRETMVSKMLDRLHLEEPSGPVPGKCPERQAQDTSVGPATPARTSSDPVAGTPQIPHTLPFRGTTPGPVFTETPGPHPQRNQGDGRHGTPWYPWTPPNPMTGPPALVFNNCSEVQIGNYNSLVAPPRTTASSSAKYDQAQFGRGRGWQPFHK
B2: mixed lineage kinase domain-like (MLKL), mouse (protein, UniProt Q9D2Y4 1-472)
chain: MDKLGQIIKLGQLIYEQCEKMKYCRKQCQRLGNRVHGLLQPLQRLQAQGKKNLPDDITAALGRFDEVLKEANQQIEKFSKKSHIWKFVSVGNDKILFHEVNEKLRDVWEELLLLLQVYHWNTVSDVSQPASWQQEDRQDAEEDGNENMKVILMQLQISVEEINKTLKQCSLKPTQEIPQDLQIKEIPKEHLGPPWTKLKTSKMSTIYRGEYHRSPVTIKVFNNPQAESVGIVRFTFNDEIKTMKKFDSPNILRIFGICIDQTVKPPEFSIVMEYCELGTLRELLDREKDLTMSVRSLLVLRAARGLYRLHHSETLHRNISSSSFLVAGGYQVKLAGFELSKTQNSISRTAKSTKAERSSSTIYVSPERLKNPFCLYDIKAEIYSFGIVLWEIATGKIPFEGCDSKKIRELVAEDKKQEPVGQDCPELLREIINECRAHEPSQRPSVDGRSLSGRERILERLSAVEESTDKKV

Experiments:
[1] = target: T1, receptor-interacting protein kinase 1 …; assay: co-IP; endogenous RIPK1 immunoprecipitated with anti-RIPK1 antibody (overnight, 4 °C; Protein A/G agarose) from RIPA lysates of L929, MDF or HT29 cells after necroptosis induction, cells pretreated with DMSO, Vemurafenib or Nec-1; RIPK3 detected by western blot; settings: remark: other sources report otherwise
[2] = target: mixed lineage kinase domain-like (MLKL), mouse (mouse (endogenous in L929 and MDF)) (UniProt Q9D2Y4); assay: non-reducing SDS-PAGE and immunoblot; L929, MDF or HT29 cells after necroptosis induction (pretreated with DMSO, Vemurafenib or Nec-1) lysed with non-reducing sample buffer; RIPK3 and MLKL oligomers detected by immunoblotting

| Binder | binding [1] | binding [2] |
| --- | --- | --- |
| B1 | binds | – |
| B2 | – | binds |
